Experimental data from patent publication US11559590B2, “Granzyme B directed imaging and therapy” (The General Hospital Corporation, priority 2016, dated 2023).
At least one structure is not confirmed: it was looked up by name or label, or the drawing left a doubt. Residues, ends and D or L forms follow the SMILES beside them. *: point of attachment. X1 = O=C(O)CN1CCN(CC(=O)O)CC(Cc2ccc(NC(=S)*)cc2)N(CC(=O)O)CC1; βAla = NCCC(=O)O

Target: T1, granzyme B (Mus musculus, UniProt P04187)
T1 sequence (P04187 21-247): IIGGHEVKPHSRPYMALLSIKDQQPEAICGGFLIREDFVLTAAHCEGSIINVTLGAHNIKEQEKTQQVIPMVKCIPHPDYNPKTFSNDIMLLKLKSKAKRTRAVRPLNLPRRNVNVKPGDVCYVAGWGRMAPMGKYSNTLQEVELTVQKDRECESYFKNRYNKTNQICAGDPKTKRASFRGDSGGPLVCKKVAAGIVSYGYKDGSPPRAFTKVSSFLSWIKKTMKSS
Assay: Inhibition of granzyme B enzyme activity (BOC-Ala-Ala-Asp-SBZL cleavage)
Assay type: biochemical
Design: purchased R&D systems
Settings: in vitro activity study, FIG. 5

`CC[C@H](C)[C@H](NC(=O)CNC(=O)CNC(=O)CCNC(=S)Nc1ccc(CC2CN(CC(=O)O)CCN(CC(=O)O)CCN2CC(=O)O)cc1)C(=O)N[C@@H](CCC(=O)O)C(=O)N[C@@H](Cc1ccccc1)C(=O)N[C@H](C=O)CC(=O)O` (stereo partly drawn) [NOTA-GP, NOTA-3-Ala-Gly-Gly-Ile-Glu-Phe-Asp-CHO] ({X1-βAla}-GGIEFD-aldehyde) was tested. Which Ki did it give?
The Ki was 47 ± 54 nM.
